Data: PubChem BioAssay AID1794845 (National Center for Advancing Translational Sciences (NCATS), 2023)
The whole screen tested about 6,900 compounds, of which fewer than 10 were called active. Calls follow the shape of the dose curve; as a rule, active = well fitted curve in the direction sought with a large enough effect; inconclusive = small, poorly fitted or top-dose-only effect, or another doubt; inactive = no such curve, though single readings can be large or run the other way. This is one part of the list.

Chains of the proteins cited; added tags and fusions are not shown. Lines headed by an entry give the natural chain unless they say otherwise; changes in a name come on top.
UniProt C7C422: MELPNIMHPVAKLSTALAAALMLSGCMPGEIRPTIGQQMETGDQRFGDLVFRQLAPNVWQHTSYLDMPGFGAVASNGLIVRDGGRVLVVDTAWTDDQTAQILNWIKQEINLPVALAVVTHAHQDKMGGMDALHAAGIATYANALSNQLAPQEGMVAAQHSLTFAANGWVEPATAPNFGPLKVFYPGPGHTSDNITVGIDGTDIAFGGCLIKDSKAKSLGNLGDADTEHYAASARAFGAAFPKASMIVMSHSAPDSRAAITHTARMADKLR

These compounds were tested against Metallo-beta-lactamase type 2 (Klebsiella pneumoniae) (UniProt C7C422) (assay: qHTS to identify inhibitors of the New Delhi Metallo-beta-lactamase (NDM): primary screen against the NCATS Gemini Collection). Conditions: NDM-1 enzyme, meropenem hydrolysis, absorbance 300 nm; at 38.4 µM (top of the series) unless noted.
How it was run: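 NDM-1 at 2 nM final in 50 mM HEPES pH 7.0, 1 uM ZnSO4, 0.01% Tween20, preincubated >30 min with compound. Meropenem 50 uM final added; absorbance at 300 nm after 30 min.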
Also: % of control where 0% means no effect.

Activity % (negative = inhibition), inactive:
CN(C)S(=O)(=O)N1CCC2(CCC(=O)N(CC3CC3)CC2)CC1 1.44%
CC(C)c1nc2ccccc2n1CC(=O)N1CC[C@](C)(O)[C@@H](O)C1 -2.4%
COc1ccccc1/C=C/CN1CCC(n2cc(CN(C)C)nn2)CC1 27.5%
CCn1c(CN2CCN(c3nc4ccccc4s3)CC2)nnc1C1CC(N)C1 (stereo unspecified) -5.98%
Clc1cc(NCc2ccccc2Cl)n2nccc2n1 8.04% [at 57.5 µM]
O=c1c2nc(-c3ccsc3)ccc2ncn1-c1ccccc1 37.2% [at 57.5 µM]
CCn1cc(S(=O)(=O)N2CCC[C@H]2c2nc(-c3ccc(F)cc3)n[nH]2)cn1 3.87%
Cc1noc([C@@H]2CN(C3CCCCCC3)C[C@H]2CO)n1 -1.35%
O=C(c1cscn1)N1CCC2(CCCN(CCC3CCCCC3)C2=O)C1 (stereo unspecified) 0.914%
Fc1ccc(-c2cccc(CN3CCOCC3)c2)c(Cl)c1 15.7%
COc1cccc(-c2nc3cc4c(cc3cc2CN2CCOCC2)OCO4)c1OC 48.5%
COc1cc(=O)n2c(c1C(=O)NCc1ccccc1Cl)CCCC2 14.2%
COc1ncccc1-c1cc2c(ccn2CC2CCN([S+](C)(=O)[O-])CC2)c(N2CCOCC2)n1 4.08%
Cn1cc(CN2CCCCCNC(=O)[C@@H]3CCC[C@@H]32)c2ccccc21 -0.919%
Cc1cnc(CC2CCN(C(=O)Cc3cccc(F)c3)CC2)n1CC1CC1 -14.5%
CCOCCn1nc(C)cc1C(=O)N[C@H]1[C@H]2CCO[C@H]2[C@@H]1N(C)C -0.113%
COCc1noc(CCNc2nc(C)nc3c2cnn3C)n1 13.4%
COCCN1C(=O)N(CCCc2cccnc2)C(=O)C12CCN(C/C=C/c1ccc(OC)cc1)CC2 0.0147%
COc1ccccc1NC(=O)N1CCCC2(CCC(=O)N(CC3CC3)C2)C1 (stereo unspecified) 15.3%
Cc1cc(C)c2nonc2c1S(=O)(=O)N1C[C@@H](N(C)C)[C@H](C(C)C)C1 -0.543%
CCn1nccc1C(=O)N1CC[C@H](n2c(=O)n(C)c3cccnc32)C1 18.1%
CCC(C)(C)NC(=O)c1cccc2c1CCN2C(=O)Nc1ccc(C)cc1 8.42%
Cc1cnc(-c2cccnc2)n1CC1CCN(S(=O)(=O)c2ccccc2)CC1 1.81%
Cc1nc(CCNS(=O)(=O)c2c(C)nn(C)c2C)no1 -8.42%
Cc1nc(C(=O)NC2CC(c3cc(N4CCC(O)C4)ncn3)C2)cs1 (stereo unspecified) 0.894%
C[C@]1(CO)[C@H]2Cc3sc(NC(=O)c4ccc(F)cc4)nc3[C@@H](CC(=O)NCc3ccccc3)[C@]2(C)CC[C@H]1O 29.3%
COc1ccc(C(=O)NCCc2ncc(C)n2C2CC2)cn1 -3.69%
N#Cc1cccc(C(=O)N2C[C@@H](Oc3cccnc3)C[C@H]2C(=O)NC2CC2)c1 -0.49%
Cc1cccnc1C(=O)N[C@@H]1CN(S(C)(=O)=O)C[C@H]1CN(C)C 14%
O=C1NC(=NC2CCCCC2)C2(CCN(Cc3ccccc3)C2)N1c1cccnc1 (stereo unspecified) 12%
O=C(C1CCc2nnc(-c3ccc(Cl)cc3Cl)n21)N1CCCC1 (stereo unspecified) -0.945%
CC(C)c1noc(-c2cn(C3CCCN(C(=O)c4ccc[nH]4)C3)nn2)n1 (stereo unspecified) -6.31%
CCC1C(=O)N(C)CCN1C(=O)c1coc(COc2ccc3c(c2)OCO3)n1 (stereo unspecified) 2.22%
O=c1cc(-c2ccccn2)oc2c(Nc3cccnc3)nccc12 7.61% [at 57.5 µM]
Cc1nc2cccnc2n1CC1CCCN(S(=O)(=O)c2ccc3c(c2)OCCO3)C1 (stereo unspecified) 2.02%
O=C(NCC1CCOCC1)C1COc2ccccc2O1 (stereo unspecified) -1.26%
Cc1cc(NC(=O)C2CCN(c3cc(C(F)(F)F)ncn3)CC2)ccc1Br 12.9%
CCn1ccc(C(=O)N2CCC3(CC2)CC(N(C(=O)c2ccccc2)C2CC2)CCO3)n1 (stereo unspecified) 12.3%
Cc1nn(C)c(C)c1CCC(=O)NC1CCc2nnc(C3CC3)n2CC1 (stereo unspecified) 0.977%
COCC(=O)N1CCN(Cc2ccccc2-c2ccc(C)c(Cl)c2)CC1 -9.24%
CC(C)(CN1CCC(Cc2ccc(C(=O)O)cc2)C1)N1CCOCC1 (stereo unspecified) 8.7%
COc1cccc(CNC(=O)C2(N3C[C@@H](C)O[C@@H](C)C3)Cc3ccccc3C2)c1 3.16%
O=C(NCCc1ccccc1)c1nc2sccn2c1-c1cccnc1 3.21%
NC(=O)[C@@H](Cc1ccccc1)NC(=O)C1=C[C@@H](NC(=O)CS(=O)(=O)c2ccccc2)[C@@H](O)[C@H](O)C1 15.5%
Cc1noc(-c2cccc(OC3CN(C(=O)c4ccco4)C3)c2)n1 31.6%
O=CN1CCCC(n2cnc3cccnc32)C1 (stereo unspecified) 1.83% [at 77.1 µM]
CC1CCN(CC2CCCN(C(=O)COc3ccc(F)cc3)CC2)CC1 (stereo unspecified) -3.41%
CC(=O)N1CCc2[nH]cnc2C12CCN(C(=O)CCn1nnnc1C)CC2 24.6%
c1nc(N2CCOCC2)c2c3c(sc2n1)CN(CC1CCCCC1)CC3 4.2%
CN1CCCCCCN(C(=O)NCc2ccccc2)CCC1=O 0.349%
CCc1ccc(N2CC(c3noc(C4(c5ccccc5)CC4)n3)CC2=O)cc1 (stereo unspecified) -1.39%
Cc1noc(C2CCCCN2C(=O)c2ccoc2)n1 (stereo unspecified) 0.293%
O=C(C[C@@H]1CCNC[C@@H]1Cc1cc(CN2CCOCC2)on1)N1CCN(c2ccc(F)cc2)CC1 2.8%
CCc1noc(-c2ccn3c(CNC(=O)c4ccc(C)c(F)c4)nnc3c2)n1 16.2%
Cc1cc(CC(=O)N2C[C@@H](COCC3CC3)[C@H](c3ccncc3)C2)on1 -1.54%
CN(c1ccccc1)c1cc(=O)c2ccnc(-c3cncnc3)c2o1 12.7% [at 57.5 µM]

4 consecutive compounds from above, quoted:
Activity % (negative = inhibition), inactive:
CCn1ccc(C(=O)N2CCC3(CC2)CC(N(C(=O)c2ccccc2)C2CC2)CCO3)n1 (stereo unspecified) 12.3%
Cc1nn(C)c(C)c1CCC(=O)NC1CCc2nnc(C3CC3)n2CC1 (stereo unspecified) 0.977%
COCC(=O)N1CCN(Cc2ccccc2-c2ccc(C)c(Cl)c2)CC1 -9.24%
CC(C)(CN1CCC(Cc2ccc(C(=O)O)cc2)C1)N1CCOCC1 (stereo unspecified) 8.7%
